Laboratory results: PubChem BioAssay AID2685 (National Center for Advancing Translational Sciences (NCATS), 2010)
This is one part of the list. Shown are side measurements of this screen, not its main read-out; they come without a call. Most of these compounds were active or inconclusive in the main read-out, so they are no random draw. The note in brackets gives the kind of curve behind each potency; many fits are weak.

Assay: qHTS Assay for Lipid Storage Modulators in Drosophila S3 Cells;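 for cell number change: cells counted by Cell Tracker Red CMTPX staining in the red channel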
Conditions: BODIPY lipid droplet fluorescence, 18-24 h; for cell number change: measured here: cell count max response, cells fed with added oleic acid
How it was run: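 Laser-scanning cytometry quantifies lipid droplet accumulation (500–530 nm total intensity; droplet/cell object ratio) in oleic acid-fed (400 uM added) Drosophila S3 cells treated with a concentration series. 20 uM Triacsin C defined 100% inhibition.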

[1] = measured here: lipid fluorescence (Fed channel) AC50, cells fed with added oleic acid
[2] = measured here: cell number channel AC50, cells fed with added oleic acid

Row | SMILES | cell number change | AC50 [1] | AC50 [2]
1 | COCCCNC(=O)c1cccc(C(=O)NCCCOC)c1 | -19.5% | 0.651 µM [falling, full curve] | 
2 | CC(C)C[C@H](N)c1nnc(SCC(=O)Nc2ccc(Br)cc2)o1 |  | 29.1 µM [rising, single point] | 
3 | O=C1CCCC2=C1C(c1ccsc1)CC(=O)N2c1ccccc1 (stereo not given) | -163% | 23.1 µM [falling, partial curve] | 25.9 µM [falling, partial curve]
4 | Cc1csc(NC(=O)c2ccc3c(c2)OCO3)n1 | 0.435% | 0.116 µM [rising, full curve, poor fit] | 
5 | O=C(c1cccs1)N(CCN1CCCCC1)CC1CCCN(C2CCCC2)C1 (stereo not given) | 2.75% |  | 
6 | Cc1cccc2nc(CSc3nc4[nH]ncc4c(=O)n3-c3ccccc3Cl)cc(=O)n12 | 14.5% | 0.082 µM [rising, full curve, poor fit] | 
7 | Cc1ccc(S(=O)(=O)N2CCCCC2)cc1C(=O)NC1CC(C)(C)NC(C)(C)C1 | -24.8% | 16.4 µM [falling, partial curve] | 3.26 µM [falling, full curve, poor fit]
8 | Cc1[nH]c2ccccc2c1-c1ccc(Cl)nn1 | 65.8% |  | 18.4 µM [rising, partial curve]
9 | COCCCn1cnc2c(c1=O)c1nc3ccccc3nc1n2-c1ccc(C)cc1 | 19.6% | 6.51 µM [rising, single point] | 
10 | COc1ccccc1CCC(=O)Nc1nc2ccccc2[nH]1 | 4.42% | 0.92 µM [rising, full curve] | 
11 | O=C(O)CC(NC(=O)CCC1CCCCC1)c1cc([N+](=O)[O-])ccc1Cl (stereo not given) | -27.5% | 4.61 µM [falling, full curve] | 3.66 µM [falling, full curve, poor fit]
12 | COc1ccc(OCCCC(=O)Nc2nnc(C3CCCO3)s2)cc1 (stereo not given) | 16.2% | 5.17 µM [rising, full curve] | 
13 | CCC1S/C(=N\S(=O)(=O)c2cccs2)N(C2CCCCC2)C1=O (stereo not given) | 0.872% | 0.00411 µM [falling, full curve, poor fit] | 
14 | O=C(O)c1ccccc1C(=O)NCc1cccnc1 | 25% |  | 0.0164 µM [rising, full curve, poor fit]
15 | COCCN1C(=O)C(O)=C(C(C)=O)C1c1ccc(F)cc1 (stereo not given) | -5.39% |  | 
16 | O=C(Nc1nc(-c2ccco2)c(-c2ccco2)s1)c1ccco1 |  | 6.51 µM [rising, single point] | 
17 | CCOc1ccc(NCc2cccn2-c2nnc(N3CCC(C(=O)NCCCN4C(C)CCCC4C)CC3)s2)cc1 (stereo not given) | 17.1% | 14.6 µM [rising, partial curve] | 1.64 µM [rising, partial curve, poor fit]
18 | COC(=O)c1sc2nc(-c3ccco3)ccc2c1N | -9.93% | 0.651 µM [falling, full curve, poor fit] | 
19 | COc1ccc(S(=O)(=O)N2CCc3ccccc32)cc1C(=O)O | 28.5% |  | 
20 | COc1ccc(CCNC(=O)c2cc(=O)c3cc(C)ccc3o2)cc1 | 28.6% | 11.6 µM [rising, partial curve, poor fit] | 0.517 µM [rising, full curve, poor fit]

Row | SMILES | cell number change | AC50 [1] | AC50 [2]
21 | CCOC(=O)[C@H](CCc1ccccc1)N[C@@H](C)C(=O)N1CCC[C@H]1C(=O)O | -24.7% | 5.17 µM [falling, single point] | 
22 | CC12CC3(C)CC(C)(C1)CC(C(=O)NCC(=O)O)(C2)C3 |  | 1.3 µM [falling, full curve] | 
23 | CCc1ccc(CCC(=O)Nc2nc(CC(C)=O)ns2)o1 | 0.814% |  | 
24 | COc1ccc(S(=O)(=O)Nc2ccc(F)c(F)c2)cc1Cl | -92.3% | 29.1 µM [falling, single point] | 29.1 µM [falling, single point]
25 | Cc1nn2cc(-c3ccccc3)nc2[nH]c1=O | -24.2% | 29.1 µM [falling, single point] | 
26 | Cc1c(O)nc(SCC(=O)Nc2ccc3c4c(cccc24)CC3)n(-c2ccccc2)c1=O | 8.36% | 2.06 µM [falling, partial curve] | 2.06 µM [falling, partial curve]
27 | CCOCCn1c(-c2ccc(OC)cc2)nc2ccccc21 | 44.5% | 16.4 µM [rising, partial curve] | 13 µM [rising, partial curve, poor fit]
28 | OCC[C@@H]1C[C@H](O)[C@@H](O)[C@]2(Cc3ccccc3O2)O1 | 30.2% |  | 4.61 µM [rising, partial curve, poor fit]
29 | CC(=O)C1=C(C)NC2=C(C(=O)c3ccccc32)C1c1ccccc1 (stereo not given) |  | 5.17 µM [falling, single point] | 6.51 µM [falling, single point]
30 | O=C(c1ccc(S(=O)(=O)N2CCCCC2)cc1)N1CCN(Cc2ccc3c(c2)OCO3)CC1 | 1.48% | 4.11 µM [rising, full curve, poor fit] | 
31 | COc1ccccc1N1CCN(C(=O)C(Cc2ccccc2)NC(=O)C2CCCCC2)CC1 (stereo not given) |  | 2.31 µM [rising, partial curve] | 3.66 µM [rising, single point]
32 | CC(=O)c1c(C)nc2sc3c(=N)n(N)cnc3c2c1-c1ccc(Cl)cc1 | 37.2% |  | 16.4 µM [rising, partial curve]
33 | CC(C)(O)C(=O)NNC(=S)Nc1ccc(F)c(Cl)c1 | 12.8% |  | 
34 | CN(Cc1ccccc1)S(=O)(=O)c1ccc(Cl)c(C(=O)NCCCN2CCOCC2)c1 | -27.4% | 6.51 µM [falling, single point] | 
35 | Cn1c2c(c(=O)c3ccccc31)CCCC2 | 14.6% | 11.6 µM [rising, partial curve] | 
36 | Cc1cccc(NC(=O)/C(=C/c2cccc([N+](=O)[O-])c2)NC(=O)c2cccs2)c1 | -23.6% |  | 
37 | CCOP(=O)(OCC)c1nc(-c2ccccc2)oc1NCc1ccccc1 | -50% | 0.731 µM [rising, full curve] | 
38 | CCOC(=O)c1ccccc1NC(=O)COC(=O)C1CCCC1 | -2.09% |  | 
39 | Cc1nn(-c2ccccc2)c(C)c1NC(=O)COC(=O)c1cc([N+](=O)[O-])ccc1NCCO | -20.3% | 10 µM [falling, partial curve] | 
40 | CCN(CC)Cc1c(C(=O)N/N=C/c2ccc(OCc3ccccc3C)cc2)nnn1-c1nonc1N | 127% | 29.1 µM [falling, single point] | 29.1 µM [rising, single point]

Row | SMILES | cell number change | AC50 [1] | AC50 [2]
41 | CCc1nnc(NC(=O)CSc2nc3[nH]c(=O)cc(O)c3s2)s1 | 1.5% | 0.461 µM [rising, partial curve, poor fit] | 
42 | CCC(C)(C)C1CCc2[nH]nc(C(=O)NCc3ccccn3)c2C1 (stereo not given) | -52.1% |  | 14.6 µM [falling, single point]
43 | O=C(NC1CCCC1)C(c1cccnc1)N(Cc1ccccc1)C(=O)c1csnn1 (stereo not given) |  | 29.1 µM [falling, single point] | 
44 | O=C(CSc1nc2ccccc2c(=O)[nH]1)Nc1ccccc1C(F)(F)F | 5.01% | 1.84 µM [falling, partial curve] | 
45 | O=C(NCCc1nc2ccc(Cl)cc2[nH]1)C1CCC(=O)N(Cc2cccc(F)c2)C1 (stereo not given) | -21.7% | 16.4 µM [falling, single point] | 
46 | CC1CCc2[nH]c3ccc(C(=O)N(C)CC(=O)Nc4ccccc4Br)cc3c2C1 (stereo not given) |  | 1.3 µM [rising, partial curve] | 1.3 µM [rising, partial curve]
47 | CCOc1cc(S(=O)(=O)NCC2OCCc3ccccc32)c(OCC)cc1-n1cnnn1 (stereo not given) | -6.78% | 0.731 µM [falling, single point] | 
48 | O=C(Nc1ccc2nc3n(c(=O)c2c1)CCCCC3)c1cc([N+](=O)[O-])ccc1F | -31.6% | 2.06 µM [falling, full curve] | 13 µM [falling, single point]
49 | COc1cc(C)c(Cl)c(C)c1S(=O)(=O)NCc1cccnc1 | 81.5% | 3.26 µM [rising, partial curve] | 2.59 µM [rising, full curve]
50 | COC(=O)c1ccccc1NC(=O)C1CCN(S(C)(=O)=O)CC1 |  |  | 4.61 µM [rising, single point]
51 | Cc1ccc(NC(=O)c2nc[nH]c2C(=O)NCCCCCNC(=O)OC(C)(C)C)cc1 | -57.6% | 0.116 µM [rising, full curve] | 8.2 µM [falling, single point]
52 | Cc1ccc(Cl)cc1N1CCN(c2cccc[n+]2C)CC1 | 11.1% | 0.00517 µM [falling, full curve, poor fit] | 
53 | COc1cccc(/C=N/Nc2nnc(C)n2N)c1O | 10.8% |  | 
54 | O=S(=O)(Nc1ccccc1Cl)c1cccc2nsnc12 | -12.2% |  | 
55 | COc1ccc(C(=O)CN2Cc3ccccc3C2=N)cc1 | 17.9% | 23.1 µM [rising, partial curve] | 
56 | O=C1NC(=O)/C(=C\c2ccccc2Oc2ccc(F)c(F)c2)S1 | -2.19% | 2.59 µM [falling, single point] | 
57 | Cc1cccc(OCCCOc2cccc3cccnc23)c1C | -45.5% | 23.1 µM [falling, single point] | 29.1 µM [falling, single point]
58 | CCN(CC(=O)Nc1c(F)cccc1F)C(=O)c1ccc(COc2ccccc2)cc1 | 25% | 20.6 µM [falling, single point] | 

Excerpt, entries 52–54
Row | SMILES | cell number change | AC50 [1] | AC50 [2]
52 | Cc1ccc(Cl)cc1N1CCN(c2cccc[n+]2C)CC1 | 11.1% | 0.00517 µM [falling, full curve, poor fit] | 
53 | COc1cccc(/C=N/Nc2nnc(C)n2N)c1O | 10.8% |  | 
54 | O=S(=O)(Nc1ccccc1Cl)c1cccc2nsnc12 | -12.2% |  | 
